PubChem BioAssay AID743121 | NCATS – 2013

Aim: 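Partners whose loss is lethal together with topoisomerase I blockade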 (primary screen)
System: MDA-MB-231 cells, a human breast cancer line
Reagents: single siRNA against human genes, 20 nM siRNA (0.8 pmol per well)
Duration: 120 h (drug added 48 h after transfection, read 72 h later)
Conditions: camptothecin 20 nM (about EC30) for 72 h; vehicle 0.1% DMSO in parallel plates
Detection: 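Cell viability by ATP luminescence (CellTiter-Glo) as % of non-targeting siRNA wells, and the log2 ratio of viability without drug over viability with camptothecin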
Reading the numbers: log2 vehicle/camptothecin viability: higher = stronger sensitisation to camptothecin; viability with camptothecin and viability without drug: higher = more viable cells
Active means: 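Active genes have an RSA gene-level p-value below 0.001, computed from the ratios of their separate siRNAs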
The whole screen tested about 26,000 reagents; below is a random part of them. Of all reagents, 167 (0.63%) got an active call. 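Calls are per gene from RSA p-values that are not deposited; an individual active-marked siRNA can sensitise only weakly.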 Unmarked entries are inactive. The numbers tell different reagents against one gene apart.

target gene | reagent no. | log2 vehicle/camptothecin viability | viability with camptothecin (% of control) | viability without drug (% of control)
CYP2S1 (GeneID 29785) | 1 | -0.334 | 22 | 17.4
CYP2S1 (GeneID 29785) | 2 | -0.274 | 81.7 | 67.5
CYP2S1 (GeneID 29785) | 3 | -0.155 | 79.8 | 71.7
CYP2S1 (GeneID 29785) | 4 | -0.405 | 69.4 | 52.4
CACNA1A (GeneID 773) | 1 | 0.553 | 52.9 | 77.5
CACNA1A (GeneID 773) | 2 | -0.466 | 52.9 | 38.3
CACNA1A (GeneID 773) | 3 | -0.23 | 99.3 | 84.7
CACNA1A (GeneID 773) | 4 | 0.0491 | 82.3 | 85.1
BMP10 (GeneID 27302) | 1 | 0.756 | 48.6 | 82.1
BMP10 (GeneID 27302) | 2 | -0.06 | 100 | 96
BMP10 (GeneID 27302) | 3 | -0.00402 | 13.3 | 13.3
BMP10 (GeneID 27302) | 4 | -0.425 | 62.4 | 46.5
GUCY1A2 (GeneID 2977) | 1 | -0.598 | 87.4 | 57.8
GUCY1A2 (GeneID 2977) | 2 | -0.226 | 120 | 103
GUCY1A2 (GeneID 2977) | 3 | -0.329 | 113 | 89.8
GUCY1A2 (GeneID 2977) | 4 | -0.249 | 101 | 85.1
DUSP7 (GeneID 1849) | 1 | 0.173 | 87.9 | 99.1
DUSP7 (GeneID 1849) | 2 | 0.406 | 40.5 | 53.7
DUSP7 (GeneID 1849) | 3 | -0.753 | 47.7 | 28.3
DUSP7 (GeneID 1849) | 4 | -0.725 | 70.3 | 42.5
KIF26B (GeneID 55083) | 1 | -0.181 | 38.1 | 33.6
KIF26B (GeneID 55083) | 2 | -0.625 | 102 | 65.8
KIF26B (GeneID 55083) | 3 | 0.257 | 64.6 | 77.2
KIF26B (GeneID 55083) | 4 | -0.26 | 90.5 | 75.6
KALRN (GeneID 8997) | 1 | -0.104 | 81.6 | 75.9
KALRN (GeneID 8997) | 2 | -0.474 | 87.2 | 62.8
KALRN (GeneID 8997) | 3 | -0.177 | 118 | 104
KALRN (GeneID 8997) | 4 | -0.408 | 107 | 80.5
KALRN (GeneID 8997) | 5 | 0.693 | 30.7 | 49.6
KALRN (GeneID 8997) | 6 | -0.115 | 98.1 | 90.5
KALRN (GeneID 8997) | 7 | -0.19 | 105 | 92.4
KALRN (GeneID 8997) | 8 | -0.153 | 94.5 | 85
KALRN (GeneID 8997) | 9 | -0.291 | 75.1 | 61.4
KALRN (GeneID 8997) | 10 | -0.0972 | 113 | 105
KALRN (GeneID 8997) | 11 | -0.253 | 94.2 | 79.1
HK3 (GeneID 3101) | 1 | -0.192 | 68.2 | 59.7
HK3 (GeneID 3101) | 2 | -0.26 | 86.9 | 72.6
HK3 (GeneID 3101) | 3 | 0.151 | 103 | 115
HK3 (GeneID 3101) | 4 | 0.908 | 22.6 | 42.5
ADGRG7 (GeneID 84873) | 1 | -0.164 | 72 | 64.3
ADGRG7 (GeneID 84873) | 2 | 0.403 | 59.6 | 78.8
ADGRG7 (GeneID 84873) | 3 | -0.366 | 129 | 100
ADGRG7 (GeneID 84873) | 4 | -0.258 | 88.2 | 73.7
NR1D1 (GeneID 9572) | 1 | -0.397 | 42.3 | 32.1
NR1D1 (GeneID 9572) | 2 | -0.136 | 53.2 | 48.4
NR1D1 (GeneID 9572) | 3 | -0.425 | 92.8 | 69.1
NR1D1 (GeneID 9572) | 4 | 0.22 | 73.8 | 86
ROM1 (GeneID 6094) | 1 | -0.219 | 107 | 92
ROM1 (GeneID 6094) | 2 | 0.056 | 57.6 | 59.8
ROM1 (GeneID 6094) | 3 | 0.338 | 45 | 56.9
ROM1 (GeneID 6094) | 4 | 0.0443 | 65.3 | 67.3
RAB31 (GeneID 11031) | 1 | -0.128 | 79.5 | 72.7
RAB31 (GeneID 11031) | 2 | -0.383 | 107 | 81.8
RAB31 (GeneID 11031) | 3 | -0.143 | 99.2 | 89.8
RAB31 (GeneID 11031) | 4 | -0.453 | 40.8 | 29.8
NPY6RP (GeneID 4888) | 1 | -0.292 | 118 | 96
NPY6RP (GeneID 4888) | 2 | 0.173 | 82.1 | 92.5
NPY6RP (GeneID 4888) | 3 | -0.236 | 105 | 89
NPY6RP (GeneID 4888) | 4 | -0.374 | 59.6 | 46
SIGLEC8 (GeneID 27181) | 1 | -0.169 | 98.9 | 88
SIGLEC8 (GeneID 27181) | 2 | -0.301 | 89.4 | 72.6
SIGLEC8 (GeneID 27181) | 3 | 0.952 | 10.9 | 21.2
SIGLEC8 (GeneID 27181) | 4 | 0.0207 | 58.3 | 59.2
SMYD2 (GeneID 56950) | 1 | -0.0929 | 105 | 98.1
SMYD2 (GeneID 56950) | 2 | 0.134 | 101 | 111
SMYD2 (GeneID 56950) | 3 | -0.248 | 49.5 | 41.7
SMYD2 (GeneID 56950) | 4 | -0.447 | 96.2 | 70.6
FANCF (GeneID 2188) | 1 | 0.185 | 97.5 | 111
FANCF (GeneID 2188) | 2 | -0.00958 | 108 | 108
FANCF (GeneID 2188) | 3 | -0.198 | 120 | 105
FANCF (GeneID 2188) | 4 | -0.529 | 81.2 | 56.3

No new results follow: 4 of the entries above.
target gene | reagent no. | log2 vehicle/camptothecin viability | viability with camptothecin (% of control) | viability without drug (% of control)
ROM1 (GeneID 6094) | 3 | 0.338 | 45 | 56.9
ROM1 (GeneID 6094) | 4 | 0.0443 | 65.3 | 67.3
RAB31 (GeneID 11031) | 1 | -0.128 | 79.5 | 72.7
RAB31 (GeneID 11031) | 2 | -0.383 | 107 | 81.8
